In article PMC7918530:
No constants are given. Whether binding was seen depends on the method and setting. Binding seen in cells or lysates may run through a third protein. Binding calls can cover weak binding; strength is not graded here.

Target: T1, Upf1 (rat (endogenous in PC12 cells and sympathetic neurons))
T1 sequence: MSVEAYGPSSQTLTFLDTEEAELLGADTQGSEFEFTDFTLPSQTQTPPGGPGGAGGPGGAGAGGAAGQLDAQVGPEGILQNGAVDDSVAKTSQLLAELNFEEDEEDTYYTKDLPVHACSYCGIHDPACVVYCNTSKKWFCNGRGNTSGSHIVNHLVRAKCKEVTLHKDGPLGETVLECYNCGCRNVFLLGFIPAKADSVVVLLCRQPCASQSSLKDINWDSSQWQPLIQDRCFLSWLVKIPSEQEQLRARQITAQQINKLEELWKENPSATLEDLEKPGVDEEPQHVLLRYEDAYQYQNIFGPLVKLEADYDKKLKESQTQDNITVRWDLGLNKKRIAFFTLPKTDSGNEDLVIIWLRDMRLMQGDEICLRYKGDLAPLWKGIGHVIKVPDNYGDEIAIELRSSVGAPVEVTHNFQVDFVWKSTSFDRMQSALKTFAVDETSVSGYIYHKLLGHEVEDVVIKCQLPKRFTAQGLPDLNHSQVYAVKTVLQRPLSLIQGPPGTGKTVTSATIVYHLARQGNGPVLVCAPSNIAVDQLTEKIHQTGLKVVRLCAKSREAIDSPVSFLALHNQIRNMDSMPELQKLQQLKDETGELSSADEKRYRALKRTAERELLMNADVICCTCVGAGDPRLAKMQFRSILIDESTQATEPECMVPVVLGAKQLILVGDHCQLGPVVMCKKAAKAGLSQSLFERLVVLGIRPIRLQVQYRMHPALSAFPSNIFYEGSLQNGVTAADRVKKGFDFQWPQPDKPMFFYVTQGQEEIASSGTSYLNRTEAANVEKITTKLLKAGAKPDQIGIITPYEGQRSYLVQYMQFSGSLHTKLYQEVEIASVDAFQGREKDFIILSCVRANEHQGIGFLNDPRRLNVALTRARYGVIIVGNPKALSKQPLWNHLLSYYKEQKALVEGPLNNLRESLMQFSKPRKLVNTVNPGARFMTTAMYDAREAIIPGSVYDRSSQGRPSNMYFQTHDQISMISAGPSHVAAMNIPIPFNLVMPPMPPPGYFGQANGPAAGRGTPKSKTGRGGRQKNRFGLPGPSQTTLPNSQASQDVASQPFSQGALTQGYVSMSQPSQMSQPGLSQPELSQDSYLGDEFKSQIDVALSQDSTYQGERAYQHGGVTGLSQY
Assay: co-IP; sympathetic neurons lysed in RIPA buffer; 0.5-1 mg pre-cleared lysate with 2 ug antibody overnight at 4°C, protein A-agarose beads, washes with RIPA buffer, western blot

binding: binds
Substance: Poly(A)-binding protein cytoplasmic 4 (Pabpc4) (rat (endogenous in sympathetic neurons))
